No constants are given. Whether binding was seen depends on the method and setting. For part of these data: Binding seen in cells or lysates may run through a third protein. Some entries that bind do so weakly or less than the wild type. For part of these data: Where a sequence is shown, tags or fusion partners need not be part of it. One block for each binder: values may come before it.
What was measured:
HA-tagged PP2Aa = HA-tagged PP2Aa (UniProt P30153); assay: co-IP; HA-PP2Aa and Flag-STRN3 in HEK293A cells treated with indicated doses of DSF (Fig. 1G) or with TH (Fig. S5C)
MST2 (Co-IP with STRN3) = target: T1, MST2 (Co-IP with STRN3) (UniProt Q13188); assay: co-IP; MST2 and STRN3, with doses of CX (Fig. S6F); cells and tags not given
T1 sequence: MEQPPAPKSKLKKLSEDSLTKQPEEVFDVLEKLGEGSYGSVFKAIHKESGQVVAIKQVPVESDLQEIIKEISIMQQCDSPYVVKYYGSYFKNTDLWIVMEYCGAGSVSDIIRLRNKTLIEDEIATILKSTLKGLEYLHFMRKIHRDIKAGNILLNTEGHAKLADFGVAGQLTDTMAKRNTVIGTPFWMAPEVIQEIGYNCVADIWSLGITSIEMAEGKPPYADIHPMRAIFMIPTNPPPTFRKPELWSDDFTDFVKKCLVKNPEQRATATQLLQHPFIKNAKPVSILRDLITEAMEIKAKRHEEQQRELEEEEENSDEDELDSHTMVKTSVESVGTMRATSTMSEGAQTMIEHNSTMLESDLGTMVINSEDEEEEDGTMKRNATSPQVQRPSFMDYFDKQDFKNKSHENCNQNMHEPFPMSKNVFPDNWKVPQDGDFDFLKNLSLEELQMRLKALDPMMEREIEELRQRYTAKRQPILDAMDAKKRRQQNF

Amino acid sequences for entries named in this document (tags omitted). A change or cut given only in a name is not applied to a line headed by its entry. Residues count along the entry.
UniProt P30153: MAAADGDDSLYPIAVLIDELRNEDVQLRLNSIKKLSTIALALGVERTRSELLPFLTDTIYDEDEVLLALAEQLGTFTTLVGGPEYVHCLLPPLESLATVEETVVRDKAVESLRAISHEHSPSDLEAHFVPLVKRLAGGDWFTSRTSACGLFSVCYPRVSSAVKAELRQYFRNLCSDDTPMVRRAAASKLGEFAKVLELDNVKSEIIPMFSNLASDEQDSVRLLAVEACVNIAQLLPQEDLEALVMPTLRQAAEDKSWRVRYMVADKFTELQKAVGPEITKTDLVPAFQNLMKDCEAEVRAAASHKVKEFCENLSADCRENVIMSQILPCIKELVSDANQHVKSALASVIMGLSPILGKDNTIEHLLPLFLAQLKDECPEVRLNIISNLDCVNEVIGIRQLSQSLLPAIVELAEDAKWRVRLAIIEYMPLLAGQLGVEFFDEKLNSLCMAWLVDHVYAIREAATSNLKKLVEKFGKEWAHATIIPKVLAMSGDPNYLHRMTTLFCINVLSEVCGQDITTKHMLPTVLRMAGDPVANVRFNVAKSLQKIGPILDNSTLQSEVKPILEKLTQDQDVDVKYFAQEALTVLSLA
biotin-labeled recombinant PP2Aa protein: residues 8-589 of P30153

[1] = target: biotin-labeled recombinant PP2Aa protein (UniProt P30153); assay: AlphaScreen or HTRF; biotin-labeled PP2Aa on streptavidin donor beads, His-tagged STRN3 on nickel chelate acceptor beads; screen of 3095 compounds, inhibition rate as read-out; both purified

- binding (HA-tagged PP2Aa): binds
B1: Flag-tagged STRN3 (protein, UniProt Q13033 1-797)
chain: MDELAGGGGGGPGMAAPPRQQQGPGGNLGLSPGGNGAAGGGGPPASEGAGPAAGPELSRPQQYTIPGILHYIQHEWARFEMERAHWEVERAELQARIAFLQGERKGQENLKKDLVRRIKMLEYALKQERAKYHKLKYGTELNQGDLKMPTFESEETKDTEAPTAPQNSQLTWKQGRQLLRQYLQEVGYTDTILDVRSQRVRSLLGLSNSEPNGSVETKNLEQILNGGESPKQKGQEIKRSSGDVLETFNFLENADDSDEDEENDMIEGIPEGKDKHRMNKHKIGNEGLAADLTDDPDTEEALKEFDFLVTAEDGEGAGEARSSGDGTEWDKDDLSPTAEVWDVDQGLISKLKEQYKKERKGKKGVKRANRTKLYDMIADLGDDELPHIPSGIINQSRSASTRMTDHEGARAEEAEPITFPSGGGKSFIMGSDDVLLSVLGLGDLADLTVTNDADYSYDLPANKDAFRKTWNPKYTLRSHFDGVRALAFHPVEPVLVTASEDHTLKLWNLQKTVPAKKSASLDVEPIYTFRAHIGPVLSLAISSNGEQCFSGGIDATIQWWNMPSPSVDPYDTYEPNVLAGTLVGHTDAVWGLAYSGIKNQLLSCSADGTVRLWNPQEKLPCICTYNGDKKHGIPTSVDFIGCDPAHMVTSFNTGSAVIYDLETSQSLVILSSQVDSGLQSNNHINRVVSHPTLPVTITAHEDRHIKFFDNKTGKMIHSMVAHLDAVTSLAVDPNGIYLMSGSHDCSIRLWNLDSKTCVQEITAHRKKLDESIYDVAFHSSKAYIASAGADALAKVFV

- binding (MST2 (Co-IP with STRN3)): binds
B2: STRN3 (Co-IP with MST2) (protein, UniProt Q13033 1-797)
chain: B1 chain

- binding [1]: binds
B3: His-SUMO-tagged STRN3 (amino acid 64–145) (domain or fragment, UniProt Q13033 64-145, looked up)
chain: TIPGILHYIQHEWARFEMERAHWEVERAELQARIAFLQGERKGQENLKKDLVRRIKMLEYALKQERAKYHKLKYGTELNQGD
notes: STRN3 (striatin-3), amino acid 64-145; Used where the tag is named or used for capture: the GST and MBP pull-downs and the nickel chelate acceptor beads of the AlphaScreen; also called HS-STRN3; His-tagged STRN3

From PMC11126936, “Reactivating Hippo by drug compounds to suppress gastric cancer and enhance chemotherapy sensitivity” (The Journal of Biological Chemistry, 2024)
